Source: PubChem BioAssay AID493014 (National Center for Advancing Translational Sciences (NCATS), 2011)
Where “and” joins values, the source holds several entries; their conditions need not be identical. Equal values may be shown once. The list shows a part of the results. Further columns of the screen follow, without active or inactive calls. Most of these compounds were active or inconclusive in the main read-out, so they are no random draw. Words in brackets tell the shape of the fitted curve; partial curves, single points and poor fits give uncertain potencies.

Experiment: qHTS Assay to Find Inhibitors of Chronic Active B-Cell Receptor Signaling
Details: ABC-DLBCL IkBa-CBG/CBR reporter, luminescence ratio (green luciferase fused to IkBa over red control in TMD8 lymphoma cells), 4 h
Method in brief: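 Compounds up to 46 uM were incubated four hours with TMD8 cells whose green CBG68 luciferase is fused to IkappaBalpha; red CBR luminescence normalised the signal, and concentration-effect curves were fitted to fusion, red and ratio data.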

[1] = measured here: CBR red luminescence, cell number
[2] = measured here: IkBa-CBG green luminescence

Row | SMILES | AC50 [1] | AC50 [2]
1 | CCN(C(=O)COC(=O)c1ccccc1SCC(=O)NC1CCCCCCC1)C1CCS(=O)(=O)C1 (stereo unspecified) | 13 µM [falling, partial curve] | –
2 | Cc1cc(=O)[nH]c(SCC(=O)Nc2nc(-c3ccccc3)cs2)n1 | 11.2 µM [falling, partial curve, poor fit] | –
3 | O=C(O)c1ccccc1-c1ccccc1C(=O)Nc1ccc2c(c1)[nH]c(=O)c1ccccc12 | 12.6 µM [falling, single point] | –
4 | CC1(C)C(O)=C(c2nc3ccccc3[nH]2)C(=N)N1c1ccccc1 | 35.5 µM [falling, single point] | –
5 | CCOc1ccc(OCCn2c(=S)[nH]c3c(N)ncnc32)cc1 | 35.5 µM [rising, single point] | –
6 | Cc1[nH]nc2c1C(c1cc(Br)cs1)C(C#N)=C(N)O2 (stereo unspecified) | 4.11 µM [falling, partial curve] | –
7 | O=C(OCc1ccccn1)c1ccc(COc2ccccc2Cl)o1 | 3.98 µM [falling, full curve, poor fit] | –
8 | Clc1ccc(-c2csc(N3CCCCCC3)n2)cc1 | 1.41 µM [falling, full curve, poor fit] | –
9 | Cc1cccc(N(CC(=O)Nc2ccc(F)cc2)S(C)(=O)=O)c1 | 0.184 µM [falling, full curve, poor fit] | –
10 | COCCCNC(=O)c1ccccc1NS(C)(=O)=O | 18.4 µM [rising, single point] | –
11 | COc1ccc(/C=C2\C(=O)OCc3cc(OC)c(OC)cc32)cc1OC | 13 µM [rising, partial curve, poor fit] | 14.6 µM [falling, partial curve, poor fit]
12 | CC1(N2CCOCC2)CC2(O)C(=[N+]1[O-])CCc1c2no[n+]1[O-] (stereo unspecified) | 0.282 µM [rising, full curve, poor fit] | –
13 | COc1cccc(NC(=O)C/C(C)=N/NC(=O)c2ccccc2Cl)c1 | 11.2 µM [falling, partial curve] | –
14 | CCC(=O)NC(Cc1ccccc1)c1ccc2c(c1)OCCCO2 (stereo unspecified) | 10.3 µM [rising, partial curve, poor fit] | –
15 | Cc1nc(Nc2cc(F)ccc2C)c2nnn(Cc3ccccc3)c2n1 | 35.5 µM [falling, single point] | –
16 | CC(=O)Nc1ccc(S(=O)(=O)Nc2cccc(S(=O)(=O)N(C)c3ccccc3)c2)cc1 | 3.66 µM [falling, full curve, poor fit] | –
17 | CCn1c(SCC(=O)Nc2nc(C)c(C(=O)OC)s2)nnc1C(C)C | 3.16 µM [falling, full curve, poor fit] | –
18 | Cc1[nH]n(-c2ccccc2)c(=O)c1/C=N/N1CCOCC1 | 35.5 µM [rising, single point] | –
19 | COc1ccccc1-c1cc(C(=O)NCc2ccco2)no1 | 2 µM [falling, full curve] | –
20 | COc1ccccc1N1C(=O)C2ON(c3ccccc3)C(c3ccc(N(C)C)cc3)C2C1=O (stereo unspecified) | 7.31 µM [falling, partial curve, poor fit] | –
21 | O=C(CCN1C(=O)/C(=C/c2ccc(F)cc2)SC1=S)NC1CCS(=O)(=O)C1 (stereo unspecified) | 10 µM [falling, partial curve, poor fit] | –
22 | COC(=O)c1cnc2ccccc2n1 | 0.00517 µM [falling, full curve, poor fit] | –

Filtered by structure: those above with a furan ring, fused or not (2)
Row | SMILES | AC50 [1] | AC50 [2]
7 | O=C(OCc1ccccn1)c1ccc(COc2ccccc2Cl)o1 | 3.98 µM [falling, full curve, poor fit] | –
19 | COc1ccccc1-c1cc(C(=O)NCc2ccco2)no1 | 2 µM [falling, full curve] | –

Next records:

Row | SMILES | AC50 [1] | AC50 [2]
23 | Cc1ccc(/C=C/C(=O)Nc2ccc(S(=O)(=O)Nc3onc(C)c3C)cc2)cc1 | 35.5 µM [falling, single point] | –
24 | COc1ccc(C(=O)NC(=S)NNC(=O)CNC(=O)C2CCCCC2)cc1 | 0.224 µM [rising, full curve, poor fit] | –
25 | CN(CCC#N)c1ccc(/C=C(\C#N)c2ccccn2)cc1 | 2.06 µM [falling, single point] | –
26 | O=C(CSc1cccc[n+]1[O-])C12CC3CC(CC(C3)C1)C2 | 22.4 µM [falling, single point] | 35.5 µM [rising, partial curve, poor fit]
27 | COc1ccccc1NC(=O)CN1CCSc2ccccc21 | 6.31 µM [falling, full curve] | –
28 | CCOc1ccccc1N/C(=N/c1nc(C)cc(C)n1)NC(=O)Nc1ccc(Cl)c(Cl)c1 | 11.6 µM [rising, single point] | –
29 | Cn1cccc1C(=O)NC(=O)COC(=O)c1cc(S(=O)(=O)N2CCCCC2)ccc1Cl | 1.12 µM [falling, full curve] | –
30 | COc1ccccc1CNS(=O)(=O)c1c(C)nc2sccn2c1=O | 35.5 µM [rising, single point] | –
31 | CCCCC(=O)Nc1ncc([N+](=O)[O-])s1 | 17.8 µM [falling, single point] | –
32 | O=C1C=C(N(CCO)Cc2ccccc2)c2ccccc2C1=O | 35.5 µM [falling, single point] | –
33 | CCc1cc(=O)oc2c(CN3CCN(C)CC3)c(O)c(Cl)cc12 | 0.92 µM [rising, full curve, poor fit] | –
34 | CC(=O)Nc1ccc(C(=O)OCCC(C)C)cc1 | 2.06 µM [rising, full curve, poor fit] | –
35 | O=[N+]([O-])c1ccc(COc2ccc(-c3[nH]ncc3-c3ccccc3)c(O)c2)cc1 | 29.1 µM [rising, single point] | –
36 | O=C1NC[C@@H](Cc2cccc3ccccc23)N(CC2CCCCC2)C1=O | 8.91 µM [rising, partial curve] | –
37 | COCCN1C(=O)N(c2cccc(OC)c2)C(=O)C1CC(=O)Nc1ccc(Cl)cc1 (stereo unspecified) | 10 µM [rising, partial curve, poor fit] | –
38 | COC(=O)c1ccc(CN(c2ccccc2OC)S(=O)(=O)c2cccs2)o1 | 3.66 µM [falling, full curve, poor fit] | –
39 | O=C(Nc1cccc2cccc(NC(=O)c3ccco3)c12)c1ccco1 | 7.31 µM [falling, partial curve, poor fit] | –
40 | Cc1ccc(/C=C2\SC(=O)N(CCC(=O)N3CCN(C)CC3)C2=O)cc1 | 10 µM [falling, partial curve] | –
41 | Cc1ccc(S(=O)(=O)Nc2c(C)n(C)n(-c3ccccc3)c2=O)cc1 | 0.411 µM [rising, full curve, poor fit] | –
42 | O=C1NCCN/C1=C\C(=O)c1ccc(Br)cc1 | 11.2 µM [falling, partial curve, poor fit] | –
43 | COc1ccc(COC(=O)C2=C(C)NC(=O)NC2c2ccc(F)cc2)cc1 (stereo unspecified) | 11.2 µM [falling, single point] | –
44 | CNC(=O)C1=NCCCc2cc(OC)c(OC)cc21 | 29.1 µM [rising, single point] | –

Part of the list above in order of heavy-atom count, largest number first:
Row | SMILES | AC50 [1] | AC50 [2]
37 | COCCN1C(=O)N(c2cccc(OC)c2)C(=O)C1CC(=O)Nc1ccc(Cl)cc1 (stereo unspecified) | 10 µM [rising, partial curve, poor fit] | –
35 | O=[N+]([O-])c1ccc(COc2ccc(-c3[nH]ncc3-c3ccccc3)c(O)c2)cc1 | 29.1 µM [rising, single point] | –
41 | Cc1ccc(S(=O)(=O)Nc2c(C)n(C)n(-c3ccccc3)c2=O)cc1 | 0.411 µM [rising, full curve, poor fit] | –

More structures follow.

Row | SMILES | AC50 [1] | AC50 [2]
45 | Cc1cc(C(=O)Nc2nc(C)c(C(=O)N(C)C)s2)ccc1[N+](=O)[O-] | 6.51 µM [rising, partial curve] | –
46 | CCOC(=O)c1c(NC(=O)/C=C/C(=O)O)sc(C)c1-c1ccc(F)cc1 | 35.5 µM [falling, partial curve, poor fit] | –
47 | O=C(NCCc1c[nH]c2ccccc12)C(=O)NCC1OCCN1S(=O)(=O)c1ccc(F)cc1 (stereo unspecified) | 32.6 µM [rising, partial curve, poor fit] | –
48 | CCCNC(=O)c1ccccc1NC(=O)Nc1ccccc1C | 29.1 µM [rising, single point] | –
49 | CC1(C(=O)OCc2cc(=O)n3cc(Br)ccc3n2)CC1(Cl)Cl (stereo unspecified) | 1.26 µM [rising, full curve, poor fit] | –
50 | CC(=O)c1cccc(NC(=O)Nc2cccs2)c1 | 5.8 µM [rising, single point] | –
51 | O=C1CCC2S/C(=C/Nc3ccc(C(F)(F)F)cc3)C(=O)N12 (stereo unspecified) | 12.6 µM [falling, partial curve] | –
52 | C=C[C@@H]1c2ccccc2N(S(=O)(=O)c2ccc(C)cc2)[C@H](c2ccc(C(F)(F)F)cc2)C1(C#N)C#N | 18.4 µM [rising, single point] | –
53 | COc1ccc(N2CS(=O)(=O)/C(=C/N(C)C)C2=O)cc1 | 31.6 µM [rising, single point] | –
54 | CC(C)(C)c1nc(NCCO)c2nnn(Cc3ccccc3)c2n1 | 14.1 µM [rising, partial curve, poor fit] | –
55 | CCOC(=O)c1ccc(Oc2nc(N(C)C)nc(N3CCOCC3)n2)cc1 | 35.5 µM [rising, single point] | –
56 | CCOC(=O)c1ccccc1NC(=O)c1cn(-c2ccc(OC)cc2)c(=O)c2ccccc12 | 0.146 µM [rising, full curve, poor fit] | –
57 | N/C(=N\OC(=O)c1ccc2c(c1)OCO2)c1ccncc1 | 10 µM [falling, partial curve] | –
58 | CCCN(CCC)CCCNC(=S)Nc1ccc2nc(N3CCCC3)cc(C)c2c1 | 2.82 µM [falling, partial curve, poor fit] | –
59 | Cc1[nH]n(-c2ccccc2)c(=O)c1C=Nc1cccc(F)c1 | 0.501 µM [rising, partial curve, poor fit] | –
60 | Cc1cccc2nc(-c3ccco3)oc(=O)c12 | 2.82 µM [falling, partial curve, poor fit] | –
61 | Cn1nccc1C(=O)Oc1cccc(/C=N/NC(=O)c2ccccc2O)c1 | 1 µM [falling, full curve, poor fit] | –
62 | CC1SC(C)C(=O)N(CC(=O)NCc2ccc(F)cc2)C1=O (stereo unspecified) | 25.9 µM [rising, single point] | –
63 | COc1ccc(Nc2nc(C)c3ccccc3n2)cc1 | 0.82 µM [rising, full curve] | –
64 | NC(=O)C1CCN(c2nc(-c3cccc(Cl)c3)cs2)CC1 | 25.9 µM [rising, single point] and 14.6 µM [rising, partial curve, poor fit] | –
